Reference: paper PMC10190619

The chains behind the UniProt entries cited, without tags or fusion partners.
UniProt P09874: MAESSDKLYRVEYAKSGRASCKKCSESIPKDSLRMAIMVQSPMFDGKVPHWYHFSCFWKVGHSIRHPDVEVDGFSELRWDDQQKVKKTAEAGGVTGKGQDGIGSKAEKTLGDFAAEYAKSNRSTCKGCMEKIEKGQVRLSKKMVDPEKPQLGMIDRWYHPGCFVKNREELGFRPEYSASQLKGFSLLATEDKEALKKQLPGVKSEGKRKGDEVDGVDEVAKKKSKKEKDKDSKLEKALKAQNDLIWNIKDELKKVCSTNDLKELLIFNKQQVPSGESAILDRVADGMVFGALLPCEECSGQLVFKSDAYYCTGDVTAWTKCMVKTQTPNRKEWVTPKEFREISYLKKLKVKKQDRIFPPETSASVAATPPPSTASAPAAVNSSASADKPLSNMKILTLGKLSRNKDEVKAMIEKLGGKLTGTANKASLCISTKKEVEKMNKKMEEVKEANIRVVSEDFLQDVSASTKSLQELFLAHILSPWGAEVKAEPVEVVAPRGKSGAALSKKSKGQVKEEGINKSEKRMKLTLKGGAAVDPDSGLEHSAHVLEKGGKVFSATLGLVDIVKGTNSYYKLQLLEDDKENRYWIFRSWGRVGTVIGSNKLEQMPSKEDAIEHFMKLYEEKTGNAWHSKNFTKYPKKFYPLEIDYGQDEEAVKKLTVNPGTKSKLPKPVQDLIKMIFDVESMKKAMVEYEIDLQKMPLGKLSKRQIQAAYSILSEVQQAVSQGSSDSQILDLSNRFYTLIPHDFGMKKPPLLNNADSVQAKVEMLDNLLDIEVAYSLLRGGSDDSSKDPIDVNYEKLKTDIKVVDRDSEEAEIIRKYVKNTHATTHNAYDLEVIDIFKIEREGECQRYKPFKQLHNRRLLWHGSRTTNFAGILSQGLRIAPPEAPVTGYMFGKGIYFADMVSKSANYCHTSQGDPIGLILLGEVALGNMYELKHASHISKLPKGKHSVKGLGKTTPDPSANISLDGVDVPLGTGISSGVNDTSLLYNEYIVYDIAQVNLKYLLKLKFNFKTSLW
UniProt Q96LA8: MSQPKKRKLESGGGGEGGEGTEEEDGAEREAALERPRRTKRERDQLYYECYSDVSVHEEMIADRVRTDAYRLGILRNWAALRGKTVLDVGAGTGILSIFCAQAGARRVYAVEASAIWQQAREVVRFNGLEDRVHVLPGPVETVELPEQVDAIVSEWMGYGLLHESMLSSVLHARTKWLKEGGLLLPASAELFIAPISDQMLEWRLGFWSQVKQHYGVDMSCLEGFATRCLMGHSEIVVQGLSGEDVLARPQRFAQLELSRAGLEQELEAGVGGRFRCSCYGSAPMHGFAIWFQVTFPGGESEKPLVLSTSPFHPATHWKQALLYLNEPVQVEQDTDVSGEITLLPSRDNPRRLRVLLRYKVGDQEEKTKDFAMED
UniProt Q92769: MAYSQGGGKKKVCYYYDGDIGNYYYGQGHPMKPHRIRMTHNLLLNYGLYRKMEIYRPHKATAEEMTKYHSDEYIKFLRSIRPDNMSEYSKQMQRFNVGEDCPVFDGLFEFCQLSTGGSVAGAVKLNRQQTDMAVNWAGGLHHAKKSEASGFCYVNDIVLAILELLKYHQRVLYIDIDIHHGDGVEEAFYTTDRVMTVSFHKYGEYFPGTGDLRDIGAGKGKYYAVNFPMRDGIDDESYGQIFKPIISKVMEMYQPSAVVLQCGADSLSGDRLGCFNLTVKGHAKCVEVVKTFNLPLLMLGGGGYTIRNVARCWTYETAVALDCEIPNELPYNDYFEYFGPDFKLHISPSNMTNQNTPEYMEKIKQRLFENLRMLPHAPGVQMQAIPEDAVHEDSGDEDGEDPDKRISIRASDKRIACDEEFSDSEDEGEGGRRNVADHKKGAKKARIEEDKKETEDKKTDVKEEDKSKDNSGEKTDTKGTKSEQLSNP
UniProt Q13547: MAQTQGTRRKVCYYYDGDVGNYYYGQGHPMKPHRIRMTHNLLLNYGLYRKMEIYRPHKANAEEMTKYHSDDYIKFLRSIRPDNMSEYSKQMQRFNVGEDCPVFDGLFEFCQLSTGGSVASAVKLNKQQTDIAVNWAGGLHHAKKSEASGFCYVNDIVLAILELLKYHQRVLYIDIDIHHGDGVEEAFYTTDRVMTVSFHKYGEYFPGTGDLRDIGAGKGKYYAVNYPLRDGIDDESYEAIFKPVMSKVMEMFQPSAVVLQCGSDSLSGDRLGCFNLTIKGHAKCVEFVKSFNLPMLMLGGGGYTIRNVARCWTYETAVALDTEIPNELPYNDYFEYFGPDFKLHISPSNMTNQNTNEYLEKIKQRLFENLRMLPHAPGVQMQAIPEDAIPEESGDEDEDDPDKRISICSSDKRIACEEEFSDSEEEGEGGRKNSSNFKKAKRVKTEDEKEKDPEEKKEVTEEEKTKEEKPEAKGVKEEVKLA

Experiments:
FLAG-PARP1 = FLAG-PARP1 (UniProt P09874); assay: affinity purification with mass spectrometry; lysate of about 5 x 10^8 HEK293T cells stably expressing FLAG-PRMT6 or FLAG-PARP1 applied to a FLAG column; eluted fractions on SDS-PAGE, silver stained, LC-MS/MS
FLAG-PRMT6 = FLAG-PRMT6 (UniProt Q96LA8); assay: as above

binding (FLAG-PARP1) | binding (FLAG-PRMT6) | Substance
binds | binds | HDAC2, endogenous (from UniProt Q92769 1-488) (enzyme)
binds |  | protein arginine methyltransferase 6 (PRMT6), endogenous (from UniProt Q96LA8 1-375) (enzyme)
 | binds | poly(ADP-ribose) polymerase 1 (PARP1), endogenous (from UniProt P09874 1-1014) (enzyme)
binds | binds | HDAC1, endogenous (from UniProt Q13547 1-482) (enzyme)

No constants are given. Whether binding was seen depends on the method and setting. Binding seen in cells or lysates may run through a third protein. These calls come from enrichment with a bait or labelling near it, and not all partners need be listed.
